Results from paper PMC6830812.
These are yes or no findings as the source states them, for the method shown. Binding seen in cells or lysates may run through a third protein. A result given as binding can be weak or reduced; the word gives no strength. Tags and fused reporters may be left off the sequences shown.

T1: MBP-tagged yeast Pdc1p (yeast (Saccharomyces cerevisiae)) (UniProt P06169)
T1 sequence: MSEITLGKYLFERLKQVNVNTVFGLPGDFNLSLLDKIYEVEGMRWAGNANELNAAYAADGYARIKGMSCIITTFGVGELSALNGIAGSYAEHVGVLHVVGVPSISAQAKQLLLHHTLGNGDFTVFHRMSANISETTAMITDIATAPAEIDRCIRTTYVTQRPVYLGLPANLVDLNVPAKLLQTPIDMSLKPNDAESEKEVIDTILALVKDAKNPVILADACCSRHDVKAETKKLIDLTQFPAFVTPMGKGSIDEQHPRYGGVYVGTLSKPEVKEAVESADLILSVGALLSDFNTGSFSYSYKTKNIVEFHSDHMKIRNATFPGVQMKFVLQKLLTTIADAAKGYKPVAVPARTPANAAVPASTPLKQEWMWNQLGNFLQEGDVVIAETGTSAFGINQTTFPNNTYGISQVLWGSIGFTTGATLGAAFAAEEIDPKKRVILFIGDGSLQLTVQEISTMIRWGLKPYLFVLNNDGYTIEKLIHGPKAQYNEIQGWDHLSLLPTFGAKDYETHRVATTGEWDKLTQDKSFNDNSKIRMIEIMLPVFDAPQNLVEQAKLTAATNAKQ

T2: MBP-AtPdc1 (Arabidopsis) (UniProt O82647)
T2 sequence: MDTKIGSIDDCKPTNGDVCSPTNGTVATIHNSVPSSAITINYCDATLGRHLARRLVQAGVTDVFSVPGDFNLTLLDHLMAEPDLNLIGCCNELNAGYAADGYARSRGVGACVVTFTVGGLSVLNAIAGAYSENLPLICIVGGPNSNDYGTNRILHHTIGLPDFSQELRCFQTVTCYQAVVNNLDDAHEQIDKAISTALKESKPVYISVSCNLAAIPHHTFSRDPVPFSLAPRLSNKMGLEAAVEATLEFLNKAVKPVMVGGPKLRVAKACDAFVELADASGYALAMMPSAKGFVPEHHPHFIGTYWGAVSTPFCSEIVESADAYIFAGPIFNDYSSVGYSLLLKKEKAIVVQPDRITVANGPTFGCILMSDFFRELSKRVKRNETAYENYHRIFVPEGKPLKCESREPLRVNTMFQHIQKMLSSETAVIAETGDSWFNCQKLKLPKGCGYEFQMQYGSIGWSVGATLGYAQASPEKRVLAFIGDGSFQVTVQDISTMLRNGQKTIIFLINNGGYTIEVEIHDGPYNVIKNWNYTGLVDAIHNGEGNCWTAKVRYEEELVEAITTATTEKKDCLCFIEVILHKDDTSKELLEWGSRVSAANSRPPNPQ


Columns and labels:
[1] = biological target: T1, MBP-tagged yeast Pdc1p (yeast (Saccharomyces cerevisiae)); assay: pull-down; MBP-tagged proteins from E. coli held on the maltose column capture GST-His6-tagged proteins from E. coli; captured protein detected with anti-His antibody; MBP as negative control; only the target purified
MBP-AtPdc1 (Arabidopsis) = biological target: T2, MBP-AtPdc1 (Arabidopsis); assay: as above
[2] = biological target: CIRV Flag-p36 replication protein (carnation Italian ringspot virus (CIRV)); assay: co-IP; Flag-affinity purification of the Flag-tagged replication proteins from the detergent-solubilized membrane fraction of yeast; samples cross-linked with formaldehyde in intact yeast cells; co-purified His6-tagged proteins detected with anti-His antibody; in Fig 2I samples taken 0, 1 h and 2.5 h after cycloheximide (100 ug/ml)
[3] = biological target: CIRV Flag-p95 replication protein (carnation Italian ringspot virus (CIRV)); assay: as above
[4] = biological target: CIRV p36-cYFP (carnation Italian ringspot virus (CIRV)); assay: split reporter; BiFC in N. benthamiana leaves; cYFP-tagged replication proteins and nYFP-tagged host proteins expressed via agroinfiltration; confocal microscopy with peroxisomal or mitochondrial markers

Molecule	binding [2]	binding [3]	other results
GST-His6-p33C (C-terminal, soluble portion of TBSV p33) (tomato bushy stunt virus (TBSV)) (domain or fragment)			binding [1]: binds; binding (MBP-AtPdc1 (Arabidopsis)): binds
yeast His6-Pdc1p (enzyme, UniProt P06169 1-563) MSEITLGKYLFERLKQVNVNTVFGLPGDFNLSLLDKIYEVEGMRWAGNANELNAAYAADGYARIKGMSCIITTFGVGELSALNGIAGSYAEHVGVLHVVGVPSISAQAKQLLLHHTLGNGDFTVFHRMSANISETTAMITDIATAPAEIDRCIRTTYVTQRPVYLGLPANLVDLNVPAKLLQTPIDMSLKPNDAESEKEVIDTILALVKDAKNPVILADACCSRHDVKAETKKLIDLTQFPAFVTPMGKGSIDEQHPRYGGVYVGTLSKPEVKEAVESADLILSVGALLSDFNTGSFSYSYKTKNIVEFHSDHMKIRNATFPGVQMKFVLQKLLTTIADAAKGYKPVAVPARTPANAAVPASTPLKQEWMWNQLGNFLQEGDVVIAETGTSAFGINQTTFPNNTYGISQVLWGSIGFTTGATLGAAFAAEEIDPKKRVILFIGDGSLQLTVQEISTMIRWGLKPYLFVLNNDGYTIEKLIHGPKAQYNEIQGWDHLSLLPTFGAKDYETHRVATTGEWDKLTQDKSFNDNSKIRMIEIMLPVFDAPQNLVEQAKLTAATNAKQ	binds	binds	
yeast His6-Pdc1^S455F mutant (enzyme, UniProt P06169 1-563) MSEITLGKYLFERLKQVNVNTVFGLPGDFNLSLLDKIYEVEGMRWAGNANELNAAYAADGYARIKGMSCIITTFGVGELSALNGIAGSYAEHVGVLHVVGVPSISAQAKQLLLHHTLGNGDFTVFHRMSANISETTAMITDIATAPAEIDRCIRTTYVTQRPVYLGLPANLVDLNVPAKLLQTPIDMSLKPNDAESEKEVIDTILALVKDAKNPVILADACCSRHDVKAETKKLIDLTQFPAFVTPMGKGSIDEQHPRYGGVYVGTLSKPEVKEAVESADLILSVGALLSDFNTGSFSYSYKTKNIVEFHSDHMKIRNATFPGVQMKFVLQKLLTTIADAAKGYKPVAVPARTPANAAVPASTPLKQEWMWNQLGNFLQEGDVVIAETGTSAFGINQTTFPNNTYGISQVLWGSIGFTTGATLGAAFAAEEIDPKKRVILFIGDGSLQLTVQEIFTMIRWGLKPYLFVLNNDGYTIEKLIHGPKAQYNEIQGWDHLSLLPTFGAKDYETHRVATTGEWDKLTQDKSFNDNSKIRMIEIMLPVFDAPQNLVEQAKLTAATNAKQ	binds	binds	
Arabidopsis His6-AtPdc1 (expressed in yeast) (enzyme, UniProt O82647 1-607) MDTKIGSIDDCKPTNGDVCSPTNGTVATIHNSVPSSAITINYCDATLGRHLARRLVQAGVTDVFSVPGDFNLTLLDHLMAEPDLNLIGCCNELNAGYAADGYARSRGVGACVVTFTVGGLSVLNAIAGAYSENLPLICIVGGPNSNDYGTNRILHHTIGLPDFSQELRCFQTVTCYQAVVNNLDDAHEQIDKAISTALKESKPVYISVSCNLAAIPHHTFSRDPVPFSLAPRLSNKMGLEAAVEATLEFLNKAVKPVMVGGPKLRVAKACDAFVELADASGYALAMMPSAKGFVPEHHPHFIGTYWGAVSTPFCSEIVESADAYIFAGPIFNDYSSVGYSLLLKKEKAIVVQPDRITVANGPTFGCILMSDFFRELSKRVKRNETAYENYHRIFVPEGKPLKCESREPLRVNTMFQHIQKMLSSETAVIAETGDSWFNCQKLKLPKGCGYEFQMQYGSIGWSVGATLGYAQASPEKRVLAFIGDGSFQVTVQDISTMLRNGQKTIIFLINNGGYTIEVEIHDGPYNVIKNWNYTGLVDAIHNGEGNCWTAKVRYEEELVEAITTATTEKKDCLCFIEVILHKDDTSKELLEWGSRVSAANSRPPNPQ	binds	binds	
yeast His6-Adh1p (enzyme, UniProt P00330 1-348) MSIPETQKGVIFYESHGKLEYKDIPVPKPKANELLINVKYSGVCHTDLHAWHGDWPLPVKLPLVGGHEGAGVVVGMGENVKGWKIGDYAGIKWLNGSCMACEYCELGNESNCPHADLSGYTHDGSFQQYATADAVQAAHIPQGTDLAQVAPILCAGITVYKALKSANLMAGHWVAISGAAGGLGSLAVQYAKAMGYRVLGIDGGEGKEELFRSIGGEVFIDFTKEKDIVGAVLKATDGGAHGVINVSVSEAAIEASTRYVRANGTTVLVGMPAGAKCCSDVFNQVVKSISIVGSYVGNRADTREALDFFARGLVKSPIKVVGLSTLPEIYEKMEKGQIVGRYVVDTSK	binds	binds	
His6-AtAdh1 (expressed in yeast) (enzyme, UniProt P06525 1-379) MSTTGQIIRCKAAVAWEAGKPLVIEEVEVAPPQKHEVRIKILFTSLCHTDVYFWEAKGQTPLFPRIFGHEAGGIVESVGEGVTDLQPGDHVLPIFTGECGECRHCHSEESNMCDLLRINTERGGMIHDGESRFSINGKPIYHFLGTSTFSEYTVVHSGQVAKINPDAPLDKVCIVSCGLSTGLGATLNVAKPKKGQSVAIFGLGAVGLGAAEGARIAGASRIIGVDFNSKRFDQAKEFGVTECVNPKDHDKPIQQVIAEMTDGGVDRSVECTGSVQAMIQAFECVHDGWGVAVLVGVPSKDDAFKTHPMNFLNERTLKGTFFGNYKPKTDIPGVVEKYMNKELELEKFITHTVPFSEINKAFDYMLKGESIRCIITMGA	binds		
nYFP-AtPdc1 (enzyme, UniProt O82647 1-607) MDTKIGSIDDCKPTNGDVCSPTNGTVATIHNSVPSSAITINYCDATLGRHLARRLVQAGVTDVFSVPGDFNLTLLDHLMAEPDLNLIGCCNELNAGYAADGYARSRGVGACVVTFTVGGLSVLNAIAGAYSENLPLICIVGGPNSNDYGTNRILHHTIGLPDFSQELRCFQTVTCYQAVVNNLDDAHEQIDKAISTALKESKPVYISVSCNLAAIPHHTFSRDPVPFSLAPRLSNKMGLEAAVEATLEFLNKAVKPVMVGGPKLRVAKACDAFVELADASGYALAMMPSAKGFVPEHHPHFIGTYWGAVSTPFCSEIVESADAYIFAGPIFNDYSSVGYSLLLKKEKAIVVQPDRITVANGPTFGCILMSDFFRELSKRVKRNETAYENYHRIFVPEGKPLKCESREPLRVNTMFQHIQKMLSSETAVIAETGDSWFNCQKLKLPKGCGYEFQMQYGSIGWSVGATLGYAQASPEKRVLAFIGDGSFQVTVQDISTMLRNGQKTIIFLINNGGYTIEVEIHDGPYNVIKNWNYTGLVDAIHNGEGNCWTAKVRYEEELVEAITTATTEKKDCLCFIEVILHKDDTSKELLEWGSRVSAANSRPPNPQ			binding [4]: binds
nYFP-AtAdh1 (enzyme, UniProt P06525 1-379) MSTTGQIIRCKAAVAWEAGKPLVIEEVEVAPPQKHEVRIKILFTSLCHTDVYFWEAKGQTPLFPRIFGHEAGGIVESVGEGVTDLQPGDHVLPIFTGECGECRHCHSEESNMCDLLRINTERGGMIHDGESRFSINGKPIYHFLGTSTFSEYTVVHSGQVAKINPDAPLDKVCIVSCGLSTGLGATLNVAKPKKGQSVAIFGLGAVGLGAAEGARIAGASRIIGVDFNSKRFDQAKEFGVTECVNPKDHDKPIQQVIAEMTDGGVDRSVECTGSVQAMIQAFECVHDGWGVAVLVGVPSKDDAFKTHPMNFLNERTLKGTFFGNYKPKTDIPGVVEKYMNKELELEKFITHTVPFSEINKAFDYMLKGESIRCIITMGA			binding [4]: binds
